Experiment [1] has as its target T1, 6xHis-FLAG-YFP-DmSAS-4 (Drosophila melanogaster) (UniProt Q9VI72).
T1 sequence: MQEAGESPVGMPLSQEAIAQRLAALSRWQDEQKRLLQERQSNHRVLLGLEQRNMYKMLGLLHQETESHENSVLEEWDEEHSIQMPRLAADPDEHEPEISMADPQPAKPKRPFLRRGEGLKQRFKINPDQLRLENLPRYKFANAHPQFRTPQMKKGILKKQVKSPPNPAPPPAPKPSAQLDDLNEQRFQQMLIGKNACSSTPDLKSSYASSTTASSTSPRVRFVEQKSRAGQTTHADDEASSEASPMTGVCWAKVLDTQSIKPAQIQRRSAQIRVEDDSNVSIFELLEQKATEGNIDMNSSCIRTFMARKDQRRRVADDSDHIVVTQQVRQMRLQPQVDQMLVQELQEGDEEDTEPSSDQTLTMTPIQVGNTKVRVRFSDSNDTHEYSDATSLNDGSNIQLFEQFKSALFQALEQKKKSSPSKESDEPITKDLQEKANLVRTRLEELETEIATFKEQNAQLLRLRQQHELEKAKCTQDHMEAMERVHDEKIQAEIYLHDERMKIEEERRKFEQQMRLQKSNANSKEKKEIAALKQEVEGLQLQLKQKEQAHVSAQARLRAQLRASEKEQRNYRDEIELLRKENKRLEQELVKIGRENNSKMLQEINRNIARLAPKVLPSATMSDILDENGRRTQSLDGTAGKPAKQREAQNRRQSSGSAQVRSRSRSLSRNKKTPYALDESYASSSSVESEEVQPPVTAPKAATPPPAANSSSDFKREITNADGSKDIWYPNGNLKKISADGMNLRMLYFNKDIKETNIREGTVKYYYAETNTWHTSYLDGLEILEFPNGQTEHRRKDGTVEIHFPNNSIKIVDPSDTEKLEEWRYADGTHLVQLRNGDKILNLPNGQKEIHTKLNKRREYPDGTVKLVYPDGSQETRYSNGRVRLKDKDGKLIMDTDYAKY
Briefly: co-IP; S. pombe cell extracts (20 mM Hepes-NaOH pH 7.5, 50 mM KOAc, 200 mM NaCl, 1 mM EDTA, 0.2% Triton X-100); GFP/YFP-tagged protein precipitated with rabbit anti-GFP on Dynabeads Protein A, 3 h at 4°C; western blot. (In general: Immunoblotting shows a protein as a band on a membrane.)

In experiment [2] the target is T2, DmSAS-6-GFP-FLAG-6xHis (Drosophila melanogaster) (UniProt Q9VAC8).
T2 sequence: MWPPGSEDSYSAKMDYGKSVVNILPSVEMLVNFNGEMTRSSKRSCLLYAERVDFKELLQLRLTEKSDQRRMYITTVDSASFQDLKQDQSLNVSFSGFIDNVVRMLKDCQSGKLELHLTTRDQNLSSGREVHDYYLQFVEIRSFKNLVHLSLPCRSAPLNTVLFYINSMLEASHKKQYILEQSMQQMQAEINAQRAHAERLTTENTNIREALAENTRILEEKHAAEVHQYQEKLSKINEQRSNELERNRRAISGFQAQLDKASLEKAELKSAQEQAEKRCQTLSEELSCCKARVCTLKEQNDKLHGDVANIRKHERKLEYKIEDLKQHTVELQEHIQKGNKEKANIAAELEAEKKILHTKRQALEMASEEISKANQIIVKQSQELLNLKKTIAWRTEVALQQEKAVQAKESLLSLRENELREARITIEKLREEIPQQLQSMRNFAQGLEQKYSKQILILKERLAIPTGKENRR
The description is as above.

This passage reports binding results from article PMC6559791.

These are yes or no findings as the source states them, for the method shown. Binding seen in cells or lysates may run through a third protein. Some entries that bind do so weakly or less than the wild type. Tags and fused reporters may be left off the sequences shown.

B1: Pcp1-HA (protein, UniProt Q92351 1-1208)
chain: MSERDFNTQSPKFKDENANSVISQSDFLGKSLKNNNDDYSDFRGSYLNDKSSFQTPLRNGSYQPKGSLEFTPLLQSSNKNSDKYNGSLGDKGSFDPNSYGLSAISKQATQEALSISQGNDSYDVSKLTDLSKNSEIDHTDGELPANAALTLREQEKVLEKVSRENFGLRIKIVCLEKRLESMAPEQIKEAVKDNVELHAERANLQLQLKRTESLLQKSEDKNFKLEEKVDYLSKVNDVEQSQNVKVFTERIRFLENALEKVQREKDSLSTEMEEDKSNKEVDYEYEIRQLQNRLDELSEELDVAQDLLTEKEDEIATLKRQIEEKENSSSAFENEENSSYVHLQEDYAILQAKCDEFADRIQVLTADLEKEKENQIMHESEASIGLTDSMQVHTLQEQLHKANEEIEFLHDQISRMNEEGKNFEDIMLQFRSLEEERDVLESKLQTLEDDNNSLRLMTSSLGNQIESLRTQNREIDEEKNHLRLLASKNSDKALAETNIRLQEVTKELETLRMKNSNDLNEIHDLREENEGLTLKIDSITKEKDRLINELEQRIKSYEVNVSELNGTIDEYRNKLKDKEETYNEVMNAFQYKDNDLRRFHESINKLQDREKELTSNLEKKNLVISSLRETVAMLEKERESIKKYLSGNAKDLDNTNLMEILNDKISVLQRQLTDVKDELDVSEEEREEAIVAGQKLSASFELMSNEKQALELKYSSLKNELINAQNLLDRREEELSELSKKLFEERKIRSGSNDDIEKNKEINVLNSELADKLAQIRHLESDKMELDKLVHHLNRGIEEANIEENAVKKRLCLLMGCDYSSVSILQIVSQIEHFVNQQIQTIRSLKQELRHDFVQFSGKKEQELSRSFEKFGLGTETKHDILAQRNRNVSEKMNDLENAAQKFFSSPDRKNGYLYPSEHTSKIEYLEKTIEDLKLALQDELKNRNLLMDDISSYNKQTTKLQEKIKWLERERSILIDELESYRSNQFNYQNNLVQDKNELEERLKEIQKELEVYNNHFMKQAELMTSNVTDESQLMLKTLREALQSKTNNIDHLSTILERNRKEYKSLLDDYNQLRARYKNLQSNTPQSTQSGQYESEIKGLSKLTKYLQSKCRREHSLRLDLAFSKKFILMQLTGYETCNKINLRMLQKIGISPDPDLSKKHIKLKSLIIVVCSIERMKRMKNEWLKQAQLKQSLQRAAAKAKTANY
Turning to B1, the binding result in experiment [1] and in experiment [2] was “binds” each time.

B2: Pcp1-mCherry (full length) (protein, UniProt Q92351 1-1208)
chain: MSERDFNTQSPKFKDENANSVISQSDFLGKSLKNNNDDYSDFRGSYLNDKSSFQTPLRNGSYQPKGSLEFTPLLQSSNKNSDKYNGSLGDKGSFDPNSYGLSAISKQATQEALSISQGNDSYDVSKLTDLSKNSEIDHTDGELPANAALTLREQEKVLEKVSRENFGLRIKIVCLEKRLESMAPEQIKEAVKDNVELHAERANLQLQLKRTESLLQKSEDKNFKLEEKVDYLSKVNDVEQSQNVKVFTERIRFLENALEKVQREKDSLSTEMEEDKSNKEVDYEYEIRQLQNRLDELSEELDVAQDLLTEKEDEIATLKRQIEEKENSSSAFENEENSSYVHLQEDYAILQAKCDEFADRIQVLTADLEKEKENQIMHESEASIGLTDSMQVHTLQEQLHKANEEIEFLHDQISRMNEEGKNFEDIMLQFRSLEEERDVLESKLQTLEDDNNSLRLMTSSLGNQIESLRTQNREIDEEKNHLRLLASKNSDKALAETNIRLQEVTKELETLRMKNSNDLNEIHDLREENEGLTLKIDSITKEKDRLINELEQRIKSYEVNVSELNGTIDEYRNKLKDKEETYNEVMNAFQYKDNDLRRFHESINKLQDREKELTSNLEKKNLVISSLRETVAMLEKERESIKKYLSGNAKDLDNTNLMEILNDKISVLQRQLTDVKDELDVSEEEREEAIVAGQKLSASFELMSNEKQALELKYSSLKNELINAQNLLDRREEELSELSKKLFEERKIRSGSNDDIEKNKEINVLNSELADKLAQIRHLESDKMELDKLVHHLNRGIEEANIEENAVKKRLCLLMGCDYSSVSILQIVSQIEHFVNQQIQTIRSLKQELRHDFVQFSGKKEQELSRSFEKFGLGTETKHDILAQRNRNVSEKMNDLENAAQKFFSSPDRKNGYLYPSEHTSKIEYLEKTIEDLKLALQDELKNRNLLMDDISSYNKQTTKLQEKIKWLERERSILIDELESYRSNQFNYQNNLVQDKNELEERLKEIQKELEVYNNHFMKQAELMTSNVTDESQLMLKTLREALQSKTNNIDHLSTILERNRKEYKSLLDDYNQLRARYKNLQSNTPQSTQSGQYESEIKGLSKLTKYLQSKCRREHSLRLDLAFSKKFILMQLTGYETCNKINLRMLQKIGISPDPDLSKKHIKLKSLIIVVCSIERMKRMKNEWLKQAQLKQSLQRAAAKAKTANY
Take B2: the binding result in experiment [2] is given as “binds”.

B3: Pcp1-mCherry (C 783-1208) (domain or fragment, UniProt Q92351 783-1208)
chain: KMELDKLVHHLNRGIEEANIEENAVKKRLCLLMGCDYSSVSILQIVSQIEHFVNQQIQTIRSLKQELRHDFVQFSGKKEQELSRSFEKFGLGTETKHDILAQRNRNVSEKMNDLENAAQKFFSSPDRKNGYLYPSEHTSKIEYLEKTIEDLKLALQDELKNRNLLMDDISSYNKQTTKLQEKIKWLERERSILIDELESYRSNQFNYQNNLVQDKNELEERLKEIQKELEVYNNHFMKQAELMTSNVTDESQLMLKTLREALQSKTNNIDHLSTILERNRKEYKSLLDDYNQLRARYKNLQSNTPQSTQSGQYESEIKGLSKLTKYLQSKCRREHSLRLDLAFSKKFILMQLTGYETCNKINLRMLQKIGISPDPDLSKKHIKLKSLIIVVCSIERMKRMKNEWLKQAQLKQSLQRAAAKAKTANY
As to B3, the binding result in experiment [2] is given as “binds”.
